Results taken from publication PMC4673166.
No constants are given. Whether binding was seen depends on the method and setting. In cells and extracts the contact can be indirect. Some entries that bind do so weakly or less than the wild type.

By UniProt entry, the sequences of proteins in these tests, tags left out.
UniProt P10417: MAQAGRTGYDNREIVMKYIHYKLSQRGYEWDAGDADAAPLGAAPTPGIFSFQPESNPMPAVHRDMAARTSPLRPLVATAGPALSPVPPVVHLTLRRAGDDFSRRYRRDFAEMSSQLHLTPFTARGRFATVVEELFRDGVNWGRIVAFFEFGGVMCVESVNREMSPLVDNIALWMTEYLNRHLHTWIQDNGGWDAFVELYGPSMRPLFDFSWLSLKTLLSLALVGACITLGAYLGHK
UniProt Q9JLV5: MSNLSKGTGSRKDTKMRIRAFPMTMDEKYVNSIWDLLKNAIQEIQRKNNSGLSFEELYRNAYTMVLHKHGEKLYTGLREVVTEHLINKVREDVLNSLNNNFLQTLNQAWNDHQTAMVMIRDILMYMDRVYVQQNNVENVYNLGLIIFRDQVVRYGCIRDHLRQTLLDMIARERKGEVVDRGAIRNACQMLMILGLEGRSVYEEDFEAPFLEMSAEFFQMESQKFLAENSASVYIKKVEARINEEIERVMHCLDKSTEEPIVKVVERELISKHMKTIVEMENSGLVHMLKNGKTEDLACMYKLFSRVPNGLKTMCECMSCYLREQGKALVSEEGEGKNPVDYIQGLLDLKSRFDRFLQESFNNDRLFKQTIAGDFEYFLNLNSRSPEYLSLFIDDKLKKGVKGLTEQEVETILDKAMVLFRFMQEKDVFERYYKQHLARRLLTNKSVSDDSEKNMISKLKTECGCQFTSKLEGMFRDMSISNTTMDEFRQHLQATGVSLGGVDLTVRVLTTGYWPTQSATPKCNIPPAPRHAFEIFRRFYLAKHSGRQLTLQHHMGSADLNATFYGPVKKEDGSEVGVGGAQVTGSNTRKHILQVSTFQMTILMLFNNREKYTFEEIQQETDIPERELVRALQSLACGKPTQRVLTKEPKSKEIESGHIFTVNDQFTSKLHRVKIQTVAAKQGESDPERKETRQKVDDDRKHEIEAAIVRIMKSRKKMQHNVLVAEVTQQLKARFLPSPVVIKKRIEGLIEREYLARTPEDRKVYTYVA

Target: wt-Bcl-2 tagged with GST (UniProt P10417)
Experiment: co-IP; lysates of SK1 cells transfected with GST-tagged bcl-2 constructs and treated with GO6976; immunoprecipitated with anti-GST antibody, immunoblotted with anti-Keap1 or anti-Cul3 antibody

binding: binds
Substance: Cul3 (from UniProt Q9JLV5 1-768)
